{"source": "PubChem BioAssay AID1259405, NCATS – 2018", "purpose": "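Silenced genes that increase secreted GFP made by CHO cells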 (primary screen)", "cell system": "Chinese hamster CHO-K1 ovary cells with stable secreted eGFP expression", "reagents": "single siRNA against mouse genes, 0.8 pmol siRNA per well (2 µl of 400 nM stock)", "timing": "3 days", "measured": "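Percent of the per-plate non-targeting control median for intracellular GFP per well by laser scanning cytometry and for cell viability by ATP luminescence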", "reading the numbers": "GFP, % of control: higher = more GFP per well, higher productivity; viability (ATP), % of control: higher = more viable cells (more ATP)", "active means": "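Called active when intracellular GFP, relative to negative control, is at or above 120%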", "note": "Here is one part, drawn at random, of about 50,000 reagents tested. About 4,000 of all reagents (8%) count as active. 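Mouse siRNA library applied to hamster cells; one well for each siRNA.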 Reagents against one gene are numbered here."}
{"Gene": "Asb12 (GeneID 70392)", "reagent": 1, "GFP, % of control": 74.6, "viability (ATP), % of control": 66.3, "call": "inactive"}
{"Gene": "Asb12 (GeneID 70392)", "reagent": 2, "GFP, % of control": 53.8, "viability (ATP), % of control": 68.7, "call": "inactive"}
{"Gene": "Asb12 (GeneID 70392)", "reagent": 3, "GFP, % of control": 39.2, "viability (ATP), % of control": 57.3, "call": "inactive"}
{"Gene": "Or4n5 (GeneID 258487)", "reagent": 1, "GFP, % of control": 86.9, "viability (ATP), % of control": 73.3, "call": "inactive"}
{"Gene": "Or4n5 (GeneID 258487)", "reagent": 2, "GFP, % of control": 92.5, "viability (ATP), % of control": 77.7, "call": "inactive"}
{"Gene": "Or4n5 (GeneID 258487)", "reagent": 3, "GFP, % of control": 67.9, "viability (ATP), % of control": 78.2, "call": "inactive"}
{"Gene": "Ap3b1 (GeneID 11774)", "reagent": 1, "GFP, % of control": 68.8, "viability (ATP), % of control": 92.9, "call": "inactive"}
{"Gene": "Ap3b1 (GeneID 11774)", "reagent": 2, "GFP, % of control": 42.6, "viability (ATP), % of control": 55.8, "call": "inactive"}
{"Gene": "Ap3b1 (GeneID 11774)", "reagent": 3, "GFP, % of control": 59.3, "viability (ATP), % of control": 72.2, "call": "inactive"}
{"Gene": "AB124611 (GeneID 382062)", "reagent": 1, "GFP, % of control": 95.2, "viability (ATP), % of control": 75.1, "call": "inactive"}
{"Gene": "AB124611 (GeneID 382062)", "reagent": 2, "GFP, % of control": 89.2, "viability (ATP), % of control": 56.3, "call": "inactive"}
{"Gene": "AB124611 (GeneID 382062)", "reagent": 3, "GFP, % of control": 72.8, "viability (ATP), % of control": 94.6, "call": "inactive"}
{"Gene": "Anks3 (GeneID 72615)", "reagent": 1, "GFP, % of control": 45.6, "viability (ATP), % of control": 71.3, "call": "inactive"}
{"Gene": "Anks3 (GeneID 72615)", "reagent": 2, "GFP, % of control": 64.5, "viability (ATP), % of control": 94.7, "call": "inactive"}
{"Gene": "Anks3 (GeneID 72615)", "reagent": 3, "GFP, % of control": 52, "viability (ATP), % of control": 66, "call": "inactive"}
{"Gene": "Tex101 (GeneID 56746)", "reagent": 1, "GFP, % of control": 93.6, "viability (ATP), % of control": 87.7, "call": "inactive"}
{"Gene": "Tex101 (GeneID 56746)", "reagent": 2, "GFP, % of control": 68.7, "viability (ATP), % of control": 98.5, "call": "inactive"}
{"Gene": "Tex101 (GeneID 56746)", "reagent": 3, "GFP, % of control": 176, "viability (ATP), % of control": 130, "call": "active"}

Laid out differently: entries from further up.
Gene | reagent | GFP, % of control | viability (ATP), % of control | call
AB124611 (GeneID 382062) | 1 | 95.2 | 75.1 | inactive
AB124611 (GeneID 382062) | 2 | 89.2 | 56.3 | inactive
AB124611 (GeneID 382062) | 3 | 72.8 | 94.6 | inactive
Anks3 (GeneID 72615) | 1 | 45.6 | 71.3 | inactive

The results go on:
{"Gene": "Elp1 (GeneID 230233)", "reagent": 1, "GFP, % of control": 70.8, "viability (ATP), % of control": 93.1, "call": "inactive"}
{"Gene": "Elp1 (GeneID 230233)", "reagent": 2, "GFP, % of control": 73.9, "viability (ATP), % of control": 65.1, "call": "inactive"}
{"Gene": "Lrch4 (GeneID 231798)", "reagent": 1, "GFP, % of control": 34.7, "viability (ATP), % of control": 61.8, "call": "inactive"}
{"Gene": "Lrch4 (GeneID 231798)", "reagent": 2, "GFP, % of control": 84.5, "viability (ATP), % of control": 85.8, "call": "inactive"}
{"Gene": "Lrch4 (GeneID 231798)", "reagent": 3, "GFP, % of control": 106, "viability (ATP), % of control": 84.8, "call": "inactive"}
{"Gene": "Napa (GeneID 108124)", "reagent": 1, "GFP, % of control": 102, "viability (ATP), % of control": 101, "call": "inactive"}
{"Gene": "Napa (GeneID 108124)", "reagent": 2, "GFP, % of control": 75.8, "viability (ATP), % of control": 70.9, "call": "inactive"}
{"Gene": "E330037G11Rik (GeneID 102220)", "reagent": 1, "GFP, % of control": 35.3, "viability (ATP), % of control": 51, "call": "inactive"}
{"Gene": "E330037G11Rik (GeneID 102220)", "reagent": 2, "GFP, % of control": 73.6, "viability (ATP), % of control": 89.9, "call": "inactive"}
{"Gene": "E330037G11Rik (GeneID 102220)", "reagent": 3, "GFP, % of control": 69.2, "viability (ATP), % of control": 61.4, "call": "inactive"}
